Assay results: publication PMC3856536
These are yes or no findings as the source states them, for the method shown. Binding seen in cells or lysates may run through a third protein. Some entries that bind do so weakly or less than the wild type.

Protein sequences, listed by entry. Tags and fused reporters are not part of them.
UniProt P35222: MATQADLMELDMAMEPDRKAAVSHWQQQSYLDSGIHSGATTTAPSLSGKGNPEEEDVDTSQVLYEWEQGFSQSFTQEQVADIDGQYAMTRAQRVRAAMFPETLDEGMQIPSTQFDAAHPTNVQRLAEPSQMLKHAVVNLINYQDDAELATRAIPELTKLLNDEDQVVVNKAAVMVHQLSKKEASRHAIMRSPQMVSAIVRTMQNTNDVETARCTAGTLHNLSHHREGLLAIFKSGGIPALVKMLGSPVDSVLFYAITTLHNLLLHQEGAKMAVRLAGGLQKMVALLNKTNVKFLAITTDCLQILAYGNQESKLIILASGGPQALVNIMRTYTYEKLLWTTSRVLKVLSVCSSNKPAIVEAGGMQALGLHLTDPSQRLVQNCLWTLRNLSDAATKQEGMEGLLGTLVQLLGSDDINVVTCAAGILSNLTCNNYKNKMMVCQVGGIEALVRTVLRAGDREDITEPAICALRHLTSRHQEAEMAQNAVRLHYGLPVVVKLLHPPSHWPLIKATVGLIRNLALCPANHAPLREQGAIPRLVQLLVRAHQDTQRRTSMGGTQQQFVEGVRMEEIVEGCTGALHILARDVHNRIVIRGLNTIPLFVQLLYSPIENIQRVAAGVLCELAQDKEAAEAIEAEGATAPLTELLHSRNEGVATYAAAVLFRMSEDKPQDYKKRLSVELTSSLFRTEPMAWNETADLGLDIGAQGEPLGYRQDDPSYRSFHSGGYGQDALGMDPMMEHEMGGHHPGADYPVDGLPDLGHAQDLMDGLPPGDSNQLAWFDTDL

Columns and labels:
[1] = target: T1, Protein Ser/Thr phosphatase-6 catalytic subunit (PP6c), endogenous in Caco-2 cells (human (endogenous in Caco-2)) (UniProt O00743); test: co-IP; anti-PP6c antibody cross-linked to protein G-agarose beads, cytosolic fraction of Caco-2 cells (MOPS buffer); non-immune IgG as control; immunoblot
T1 sequence: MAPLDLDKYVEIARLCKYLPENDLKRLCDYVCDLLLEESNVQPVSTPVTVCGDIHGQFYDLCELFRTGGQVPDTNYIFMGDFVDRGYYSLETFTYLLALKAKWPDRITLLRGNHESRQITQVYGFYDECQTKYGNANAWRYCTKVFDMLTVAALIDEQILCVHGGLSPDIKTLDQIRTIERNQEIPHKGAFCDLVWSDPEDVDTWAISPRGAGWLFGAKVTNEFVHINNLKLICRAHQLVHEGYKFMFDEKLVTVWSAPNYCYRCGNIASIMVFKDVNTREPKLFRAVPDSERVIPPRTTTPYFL

[2] = target: T1, Protein Ser/Thr phosphatase-6 catalytic subunit (PP6c), endogenous in Caco-2 cells (human (endogenous in Caco-2)); test: co-IP; anti-PP6c antibody cross-linked to protein G-agarose beads, membrane fraction of Caco-2 cells (MOPS buffer with 1% Nonidet P-40); non-immune IgG as control; immunoblot

**Q.** With “β-catenin, endogenous in Caco-2 cells (from UniProt P35222 1-781)” as the substance, how does the binding [1] read?
**A.** no binding (condition: in the cytosolic fraction)

**Q.** What about the binding [2] of the same substance?
**A.** binds
